From PubChem BioAssay AID540256 (National Center for Advancing Translational Sciences (NCATS), 2011)
In all, about 300,000 compounds went through this assay and about 3,700 (1.2%) were called active. Inconclusive means that the source gave no clear call. Such entries were picked first, then a sample of the others. Calls follow the shape of the full dose curve; tested in HEK293 cells. A potency beside an inconclusive call is a rough fit, not a confirmed value.
Potency is read from the fitted curve at half-maximal effect.

Experiment: qHTS for Inhibitors of binding or entry into cells for Lassa Virus; also: nearly all actives have a fitted effect of over 50% in size
Details: Lassa virus pseudotype entry inhibition, cell reporter; series mostly up to 37.9 µM
In the case of `O=C(NCc1ccco1)c1cccc(S(=O)(=O)N2CCc3ccccc32)c1`, the Potency is reported as “inactive”.
For `N#Cc1c(Nc2ccc(F)cc2)sc(C(=O)c2ccc(F)cc2)c1N`, the Potency was inconclusive: 9.2 µM [inhibitor, partial curve, poor fit].
For `CCCSc1nnc(CSc2ncccn2)n1C`, the Potency was inconclusive: 0.891 µM [inhibitor, single point].
With `COc1ccc2c(c1)c(CCN)c(C)n2Cc1ccccc1` the Potency was inconclusive: 12.6 µM [inhibitor, partial curve, poor fit].
For `Cc1ccc(OCC(=O)NC2CC(C)(C)NC(C)(C)C2)c(C)c1`, the Potency was “inactive”.
For `CCCC(=O)Nc1cccc(S(=O)(=O)N(C)c2ccccc2)c1`, the Potency was inconclusive: 7.94 µM [inhibitor, partial curve, poor fit].
For `CC(=O)C1=C(c2ccc(Br)cc2)C(=O)c2ccccc2C1=O`, the Potency was active: 2.51 µM.
For `COc1ccc(C(=O)Nc2c(N)nc(SCC(=O)Nc3ccc(NC(C)=O)cc3)[nH]c2=O)cc1OC`, the Potency was “inactive”.
For `CCOc1ccc(-c2cc(CCCC(=O)NCc3ccco3)no2)cc1`, the Potency was inconclusive: 4.61 µM [inhibitor, partial curve].
For `Cc1ccccc1NS(=O)(=O)c1cc(C(=O)N2CCc3ccccc3C2)ccc1C`, the Potency was inconclusive: 14.1 µM [inhibitor, single point].
With `CCn1cc(C(=O)NCCc2ccc(C)cc2)c(=O)c2cc(S(=O)(=O)N(C)C)ccc21` the Potency was “inactive”.
In the case of `O=C1CC(NS(=O)(=O)c2cccs2)CN1c1cccc(F)c1` (configuration not stated), the Potency is reported as “inactive”.
For `Cc1cc(C)c(Cn2c3ccccc3c3cnn(CC(=O)N4CCCCC4)c(=O)c32)c(C)c1`, the Potency was inconclusive: 1.78 µM [inhibitor, partial curve, poor fit].
With `Cc1ccc(Nc2ncc3c(n2)CC(c2ccco2)CC3=O)c(C)c1` (configuration not stated) the Potency was inconclusive: 12.6 µM [inhibitor, single point].
For `C=CCOc1ccc(/C=N/Nc2ccccn2)cc1OC`, the Potency was “inactive”.
With `Cc1ccc2c(COC(=O)C3CC(=O)N(c4ccc5c(c4)OCCO5)C3)cc(=O)oc2c1` (configuration not stated) the Potency was inconclusive: 0.447 µM [inhibitor, partial curve, poor fit].
For `CCC(C)(C)NC(=O)C(c1ccccc1Cl)N(Cc1cccnc1)C(=O)CCC(=O)Nc1cc(C)on1` (configuration not stated), the Potency was inconclusive: 6.31 µM [inhibitor, single point].
For `CCCC(c1nnnn1C(C)(C)CC)N(CCCO)Cc1cc2cc(C)cc(C)c2[nH]c1=O` (configuration not stated), the Potency was inconclusive: 15.8 µM [inhibitor, partial curve].
For `O=C(NC1CCCCC1)c1cc(Cl)ccc1[N+](=O)[O-]`, the Potency was inconclusive: 3.16 µM [activator, single point].
For `C=CC[n+]1c(-c2ccc(C)cc2)csc1Nc1c(C)n(C)n(-c2ccccc2)c1=O`, the Potency was inconclusive: 1.12 µM [inhibitor, partial curve, poor fit].
For `CN(C)CCCn1c(SCCN2C(=O)c3ccccc3C2=O)nc2ccccc2c1=O`, the Potency was inconclusive: 0.891 µM [inhibitor, single point].
With `COc1ccc(-n2cc(CNCCc3cscn3)c(-c3ccccc3Cl)n2)cc1` the Potency was “inactive”.
For `Cc1nn(S(=O)(=O)c2ccc(Cl)cc2)c(C)c1Sc1ccc([N+](=O)[O-])cc1`, the Potency was inconclusive: 5.01 µM [inhibitor, full curve, poor fit].
For `C#CC(C)(C)NS(=O)(=O)c1cc(-c2nnc(Nc3ccc(C)cc3)c3ccccc23)ccc1C`, the Potency was inconclusive: 11.2 µM [inhibitor, single point].
For `Oc1ccc(N=Cc2ccc(-c3cccs3)s2)cc1`, the Potency was inconclusive: 6.51 µM [inhibitor, full curve, poor fit].
In the case of `COc1ccc(P(=O)(COc2ccc([N+](=O)[O-])cc2)c2ccc(OC)cc2)cc1`, the Potency is reported as inconclusive: 13 µM [inhibitor, partial curve].
In the case of `CC(C)CN=C(NS(=O)(=O)c1ccccc1)C(Cl)(Cl)Cl`, the Potency is reported as inconclusive: 25.1 µM [inhibitor, single point].
With `CN(CC(=O)NCc1ccco1)S(=O)(=O)c1ccc(F)cc1` the Potency was inconclusive: 5.62 µM [activator, single point].
With `Cc1ccc(NC(=O)CN(C)S(=O)(=O)c2ccc(Br)s2)cc1F` the Potency was “inactive”.
With `COC1=Cc2c(ccc3ccc(=O)oc23)OC1(C)C` the Potency was “inactive”.
In the case of `COc1ccccc1NC(=O)Cn1c(=O)n(Cc2ccc3c(c2)OCO3)c(=O)c2oc3ccccc3c21`, the Potency is reported as “inactive”.
In the case of `O=C(c1noc2c1CCCCC2)N1CCN(c2ccc(Cl)cc2)CC1`, the Potency is reported as “inactive”.
For `Cc1ccc2c(c1)C(=O)C(=O)N2CC1COc2ccccc2O1` (configuration not stated), the Potency was “inactive”.
With `COc1cc(C)ccc1S(=O)(=O)N1CCN(C23CC4CC(CC(C4)C2)C3)CC1` the Potency was inconclusive: 25.1 µM [inhibitor, single point].
In the case of `COc1ccc(N(C(=O)/C=C\C(=O)Nc2ccc(Cl)cc2)C(C(=O)NCc2ccco2)c2ccc(C)cc2)cc1` (configuration not stated), the Potency is reported as inconclusive: 15.8 µM [inhibitor, single point].
In the case of `Cc1ccc(CC(=O)OCC(=O)NC2CCCC(C)C2C)cc1C` (configuration not stated), the Potency is reported as inconclusive: 2.24 µM [activator, partial curve, poor fit].
In the case of `COc1ccc(NC(=O)CCS(=O)(=O)c2nc(-c3cccs3)cc(C(F)(F)F)n2)cc1OC`, the Potency is reported as inconclusive: 35.5 µM [inhibitor, single point].
For `CC1(c2ccccc2)NC(=O)N(CC(=O)NCc2cccc(Cl)c2)C1=O` (configuration not stated), the Potency was “inactive”.
With `COc1ccc(OC)c(S(=O)(=O)Nc2cc3c(cc2C)n(C)c(=O)c(=O)n3C)c1` the Potency was “inactive”.
For `CC(=O)Nc1ccc(S(=O)(=O)NC2CCSc3ccccc32)cc1` (configuration not stated), the Potency was inconclusive: 7.94 µM [inhibitor, partial curve].
For `CN(C(=O)Nc1ccc(Cl)c(Cl)c1)c1ccccc1C(=O)O`, the Potency was inconclusive: 0.794 µM [activator, full curve].
With `CN(CC(=O)NC(=O)NCc1ccccc1)Cc1cccc(Cl)c1Cl` the Potency was inconclusive: 32.6 µM [inhibitor, partial curve, poor fit].
With `O=C1c2[nH]nc(-c3ccccc3O)c2C(c2ccccc2)N1Cc1ccco1` (configuration not stated) the Potency was active: 1.46 µM.
With `Cc1ccc(C(C(=O)NCc2ccco2)N(CCc2ccccc2)C(=O)Cn2nnc3ccccc32)o1` (configuration not stated) the Potency was inconclusive: 35.5 µM [inhibitor, single point].
With `CCN1CCN(Cc2nc3c(c(=O)n(C)c(=O)n3C)n2Cc2cccc3ccccc23)CC1` the Potency was “inactive”.
In the case of `O=C(NC(=S)Nc1nc(-c2ccccc2)cs1)c1cccnc1`, the Potency is reported as “inactive”.
With `COc1ccc(-c2cc(C(F)(F)F)nc(SCC(=O)Nc3sc4c(c3C#N)CCC4)n2)cc1` the Potency was inconclusive: 29.1 µM [inhibitor, single point].
For `COc1cccc(N2CC(O)=C(c3nc4ccccc4c(=O)[nH]3)C2=N)c1`, the Potency was inconclusive: 0.517 µM [inhibitor, full curve, poor fit].
In the case of `Cc1cccc(C(C)C)c1NC(=O)COC(=O)c1cccc(S(=O)(=O)N2CCc3ccccc3C2)c1`, the Potency is reported as inconclusive: 7.08 µM [inhibitor, single point].
With `COCc1c(C(=O)Nc2ccc3nc(N4CCOCC4)sc3c2)oc2ccccc12` the Potency was inconclusive: 35.5 µM [inhibitor, single point].
In the case of `COC(=O)Cc1ccc(NC(=S)NNC(=O)C2CC2)cc1`, the Potency is reported as inconclusive: 4.47 µM [activator, partial curve, poor fit].
With `COc1cc(CN(C(=O)c2ccco2)c2ccc(C)cc2)ccc1O` the Potency was inconclusive: 9.2 µM [inhibitor, partial curve, poor fit].
In the case of `CCCOc1c(OC)cccc1C1CC(=O)Nc2cc3c(cc21)OCO3` (configuration not stated), the Potency is reported as active: 7.08 µM.
With `COc1cc(Cl)c(C)cc1NC(=O)c1cc(S(=O)(=O)N(C)C)ccc1N1CCCC1` the Potency was inconclusive: 12.6 µM [inhibitor, single point].
With `Cc1ccc(NC(=O)COC(=O)C2=COCCO2)cc1` the Potency was inconclusive: 15.8 µM [activator, partial curve, poor fit].
For `Cc1ccc(C(=O)N/C(=C\c2cn(C)c3ccccc23)C(=O)NCCCN2CCOCC2)cc1`, the Potency was “inactive”.
For `Fc1cccc(-c2ncc(-c3ccccc3)o2)c1`, the Potency was inconclusive: 1.41 µM [activator, full curve, poor fit].
With `COc1cc(CNc2nc3ccccc3s2)cc(OC)c1OC` the Potency was inconclusive: 11.2 µM [inhibitor, partial curve, poor fit].
For `Cc1cccc(C)c1OCc1cc(C(=O)N2CCCC2c2nonc2C)no1` (configuration not stated), the Potency was inconclusive: 17.8 µM [inhibitor, single point].
For `COc1ccccc1/C=C/C(=O)c1ccc(NC(C)=O)cc1`, the Potency was active: 11.2 µM.
With `O=[N+]([O-])c1cc(S(=O)(=O)N2CCCCCC2)ccc1F` the Potency was inconclusive: 28.2 µM [inhibitor, single point].
For `CCC(=O)Nc1ccc(C(=O)COC(=O)C(CCSC)NC(=O)COc2ccccc2)cc1` (configuration not stated), the Potency was “inactive”.
In the case of `CN(CC(=O)Nc1ccccc1C(F)(F)F)C(=O)COc1ncnc2ccccc12`, the Potency is reported as “inactive”.
With `COc1ccc(NC(=O)c2cn(CC(C)C)c(=O)c3cc(OC)c(OC)cc23)cc1Cl` the Potency was “inactive”.
For `CCC1CN(C(=O)Nc2ccc(C)cc2)c2cc(C)ccc2O1` (configuration not stated), the Potency was inconclusive: 35.5 µM [inhibitor, single point].
In the case of `COC(=O)C1=C(C(=O)OC)C(c2ccccc2O)c2sc(=O)[nH]c2S1` (configuration not stated), the Potency is reported as “inactive”.
In the case of `CC(=O)NC12CC3CC(C1)CC(C(=O)Nc1nc4c(C)cccc4s1)(C3)C2`, the Potency is reported as inconclusive: 0.1 µM [inhibitor, full curve, poor fit].
